Measurements published in patent US20250283871A1, “COMPOSITIONS AND METHODS FOR MODULATING THE INTERACTION BETWEEN SS18-SSX FUSION ONCOPROTEIN AND NUCLEOSOMES” (Dana-Farber Cancer Institute, Inc., priority 2020, published 2025).

B1: DHX30 (protein, UniProt Q7L2E3 1-1194, looked up)
ATP-dependent RNA helicase …: MFSLDSFRKDRAQHRQRQCKLPPPRLPPMCVNPTPGGTISRASRDLLKEFPQPKNLLNSVIGRALGISHAKDKLVYVHTNGPKKKKVTLHIKWPKSVEVEGYGSKKIDAERQAAAAACQLFKGWGLLGPRNELFDAAKYRVLADRFGSPADSWWRPEPTMPPTSWRQLNPESIRPGGPGGLSRSLGREEEEDEEEELEEGTIDVTDFLSMTQQDSHAPLRDSRGSSFEMTDDDSAIRALTQFPLPKNLLAKVIQIATSSSTAKNLMQFHTVGTKTKLSTLTLLWPCPMTFVAKGRRKAEAENKAAALACKKLKSLGLVDRNNEPLTHAMYNLASLRELGETQRRPCTIQVPEPILRKIETFLNHYPVESSWIAPELRLQSDDILPLGKDSGPLSDPITGKPYVPLLEAEEVRLSQSLLELWRRRGPVWQEAPQLPVDPHRDTILNAIEQHPVVVISGDTGCGKTTRIPQLLLERYVTEGRGARCNVIITQPRRISAVSVAQRVSHELGPSLRRNVGFQVRLESKPPSRGGALLFCTVGILLRKLQSNPSLEGVSHVIVDEVHERDVNTDFLLILLKGLQRLNPALRLVLMSATGDNERFSRYFGGCPVIKVPGFMYPVKEHYLEDILAKLGKHQYLHRHRHHESEDECALDLDLVTDLVLHIDARGEPGGILCFLPGWQEIKGVQQRLQEALGMHESKYLILPVHSNIPMMDQKAIFQQPPVGVRKIVLATNIAETSITINDIVHVVDSGLHKEERYDLKTKVSCLETVWVSRANVIQRRGRAGRCQSGFAYHLFPRSRLEKMVPFQVPEILRTPLENLVLQAKIHMPEKTAVEFLSKAVDSPNIKAVDEAVILLQEIGVLDQREYLTTLGQRLAHISTDPRLAKAIVLAAIFRCLHPLLVVVSCLTRDPFSSSLQNRAEVDKVKALLSHDSGSDHLAFVRAVAGWEEVLRWQDRSSRENYLEENLLYAPSLRFIHGLIKQFSENIYEAFLVGKPSDCTLASAQCNEYSEEEELVKGVLMAGLYPNLIQVRQGKVTRQGKFKPNSVTYRTKSGNILLHKSTINREATRLRSRWLTYFMAVKSNGSVFVRDSSQVHPLAVLLLTDGDVHIRDDGRRATISLSDSDLLRLEGDSRTVRLLKELRRALGRMVERSLRSELAALPPSVQEEHGQLLALLAELLRGPCGSFDVRKTADD
B2: PRPF6 (protein, UniProt O94906 1-941, looked up)
Pre-mRNA-processing factor 6: MNKKKKPFLGMPAPLGYVPGLGRGATGFTTRSDIGPARDANDPVDDRHAPPGKRTVGDQMKKNQAADDDDEDLNDTNYDEFNGYAGSLFSSGPYEKDDEEADAIYAALDKRMDERRKERREQREKEEIEKYRMERPKIQQQFSDLKRKLAEVTEEEWLSIPEVGDARNKRQRNPRYEKLTPVPDSFFAKHLQTGENHTSVDPRQTQFGGLNTPYPGGLNTPYPGGMTPGLMTPGTGELDMRKIGQARNTLMDMRLSQVSDSVSGQTVVDPKGYLTDLNSMIPTHGGDINDIKKARLLLKSVRETNPHHPPAWIASARLEEVTGKLQVARNLIMKGTEMCPKSEDVWLEAARLQPGDTAKAVVAQAVRHLPQSVRIYIRAAELETDIRAKKRVLRKALEHVPNSVRLWKAAVELEEPEDARIMLSRAVECCPTSVELWLALARLETYENARKVLNKARENIPTDRHIWITAAKLEEANGNTQMVEKIIDRAITSLRANGVEINREQWIQDAEECDRAGSVATCQAVMRAVIGIGIEEEDRKHTWMEDADSCVAHNALECARAIYAYALQVFPSKKSVWLRAAYFEKNHGTRESLEALLQRAVAHCPKAEVLWLMGAKSKWLAGDVPAARSILALAFQANPNSEEIWLAAVKLESENDEYERARRLLAKARSSAPTARVFMKSVKLEWVQDNIRAAQDLCEEALRHYEDFPKLWMMKGQIEEQKEMMEKAREAYNQGLKKCPHSTPLWLLLSRLEEKIGQLTRARAILEKSRLKNPKNPGLWLESVRLEYRAGLKNIANTLMAKALQECPNSGILWSEAIFLEARPQRRTKSVDALKKCEHDPHVLLAVAKLFWSQRKITKAREWFHRTVKIDSDLGDAWAFFYKFELQHGTEEQQEEVRKRCESAEPRHGELWCAVSKDIANWQKKIGDILRLVAGRIKNTF
B3: MCM4 (protein, UniProt P33991 2-863, looked up)
DNA replication licensing …: SSPASTPSRRGSRRGRATPAQTPRSEDARSSPSQRRRGEDSTSTGELQPMPTSPGVDLQSPAAQDVLFSSPPQMHSSAIPLDFDVSSPLTYGTPSSRVEGTPRSGVRGTPVRQRPDLGSAQKGLQVDLQSDGAAAEDIVASEQSLGQKLVIWGTDVNVAACKENFQRFLQRFIDPLAKEEENVGIDITEPLYMQRLGEINVIGEPFLNVNCEHIKSFDKNLYRQLISYPQEVIPTFDMAVNEIFFDRYPDSILEHQIQVRPFNALKTKNMRNLNPEDIDQLITISGMVIRTSQLIPEMQEAFFQCQVCAHTTRVEMDRGRIAEPSVCGRCHTTHSMALIHNRSLFSDKQMIKLQESPEDMPAGQTPHTVILFAHNDLVDKVQPGDRVNVTGIYRAVPIRVNPRVSNVKSVYKTHIDVIHYRKTDAKRLHGLDEEAEQKLFSEKRVELLKELSRKPDIYERLASALAPSIYEHEDIKKGILLQLFGGTRKDFSHTGRGKFRAEINILLCGDPGTSKSQLLQYVYNLVPRGQYTSGKGSSAVGLTAYVMKDPETRQLVLQTGALVLSDNGICCIDEFDKMNESTRSVLHEVMEQQTLSIAKAGIICQLNARTSVLAAANPIESQWNPKKTTIENIQLPHTLLSRFDLIFLLLDPQDEAYDRRLAHHLVALYYQSEEQAEEELLDMAVLKDYIAYAHSTIMPRLSEEASQALIEAYVDMRKIGSSRGMVSAYPRQLESLIRLAEAHAKVRLSNKVEAIDVEEAKRLHREALKQSATDPRTGIVDISILTTGMSATSRKRKEELAEALKKLILSKGKTPALKYQQLFEDIRGQSDIAITKDMFEEALRALADDDFLTVTGKTVRLL
B4: DHX37 (protein, UniProt Q8IY37 1-1157, looked up)
Probable ATP-dependent RNA …: MGKLRRRYNIKGRQQAGPGPSKGPPEPPPVQLELEDKDTLKGVDASNALVLPGKKKKKTKAPPLSKKEKKPLTKKEKKVLQKILEQKEKKSQRAEMLQKLSEVQASEAEMRLFYTTSKLGTGNRMYHTKEKADEVVAPGQEKISSLSGAHRKRRRWPSAEEEEEEEEESESELEEESELDEDPAAEPAEAGVGTTVAPLPPAPAPSSQPVPAGMTVPPPPAAAPPLPRALAKPAVFIPVNRSPEMQEERLKLPILSEEQVIMEAVAEHPIVIVCGETGSGKTTQVPQFLYEAGFSSEDSIIGVTEPRRVAAVAMSQRVAKEMNLSQRVVSYQIRYEGNVTEETRIKFMTDGVLLKEIQKDFLLLRYKVVIIDEAHERSVYTDILIGLLSRIVTLRAKRNLPLKLLIMSATLRVEDFTQNPRLFAKPPPVIKVESRQFPVTVHFNKRTPLEDYSGECFRKVCKIHRMLPAGGILVFLTGQAEVHALCRRLRKAFPPSRARPQEKDDDQKDSVEEMRKFKKSRARAKKARAEVLPQINLDHYSVLPAGEGDEDREAEVDEEEGALDSDLDLDLGDGGQDGGEQPDASLPLHVLPLYSLLAPEKQAQVFKPPPEGTRLCVVATNVAETSLTIPGIKYVVDCGKVKKRYYDRVTGVSSFRVTWVSQASADQRAGRAGRTEPGHCYRLYSSAVFGDFEQFPPPEITRRPVEDLILQMKALNVEKVINFPFPTPPSVEALLAAEELLIALGALQPPQKAERVKQLQENRLSCPITALGRTMATFPVAPRYAKMLALSRQHGCLPYAITIVASMTVRELFEELDRPAASDEELTRLKSKRARVAQMKRTWAGQGASLKLGDLMVLLGAVGACEYASCTPQFCEANGLRYKAMMEIRRLRGQLTTAVNAVCPEAELFVDPKMQPPTESQVTYLRQIVTAGLGDHLARRVQSEEMLEDKWRNAYKTPLLDDPVFIHPSSVLFKELPEFVVYQEIVETTKMYMKGVSSVEVQWIPALLPSYCQFDKPLEEPAPTYCPERGRVLCHRASVFYRVGWPLPAIEVDFPEGIDRYKHFARFLLEGQVFRKLASYRSCLLSSPGTMLKTWARLQPRTESLLRALVAEKADCHEALLAAWKKNPKYLLAEYCEWLPQAMHPDIEKAWPPTTVH

Tested on: BAF complex subunits and histone proteins
Assay: Mass spectrometry proteomics of purified HA-SS18 WT and HA-SS18-SSX1 complexes (Tables 5A-5E)
Parameters: species or system human
Settings: for Total / Unique: HA-SS18SSX1_CHR_peptides; for Total: total peptides of the identified protein; for Unique: unique peptides of the identified protein; for Total (peptides) / Unique (peptides) / Total (total peptides) / Unique (unique peptides): HEK-293T
[1] = HA-SS18SSX1_NE_peptides (Table 5B), HA-SS18-SSX1 BAF complex purification from soluble nuclear extract
[2] = HA-SS18WT_CHR_peptides: HA-SS18 WT purification from nuclease-treated solubilized chromatin (CHR), label = protein identified
[3] = HA-SS18WT_NE_peptides: proteins co-purified with HA-SS18 WT from nuclear extract (NE)
[4] = HA-SS18SSX1 purification, NE (soluble nuclear extract) fraction, peptides per identified protein
[5] = HA-SS18WT_CHR_peptides: protein identified in HA-SS18 WT BAF complex purification from nuclease-treated solubilized chromatin (CHR)
[6] = HA-SS18WT_NE_peptides: HA-SS18 WT complexes purified from nuclear extract (NE), label = protein identified (Gene Symbol)

Molecule | Total | Unique | Total (peptides) [1] | Unique (peptides) [1] | Total (peptides) [2] | Unique (peptides) [2] | Total (peptides) [3] | Unique (peptides) [3] | Total (total peptides) [4] | Unique (unique peptides) [4] | Total (total peptides) [5] | Unique (unique peptides) [5] | Total (peptides) [6] | Unique (peptides) [6]
B1 | 4 | 4 | 1 | 1 | 3 | 3 | 1 | 1 | – | – | – | – | – | –
B2 | 4 | 4 | – | – | – | – | – | – | 3 | 3 | 1 | 1 | 3 | 3
B3 | 4 | 4 | – | – | 5 | 5 | – | – | – | – | – | – | – | –
B4 | 4 | 4 | – | – | – | – | – | – | – | – | – | – | 2 | 2
